In US20060069110A1, “Substituted heterocyclic compounds and methods of use” (priority 2004, published 2006):
Some of these results come from one statement about several compounds together. For at least one compound, name, drawing or mass did not settle the structure.

Test system: THP1 cells (LPS induced TNF release)
Assay: Lipopolysaccharide-Activated THP1 Cell TNF Production Assay
Format: cell-based, human
Conditions: bacterial LPS, secreted TNF-α after 3 h at 37° C.
Experimental: Lipopolysaccharide-Activated THP1 Cell TNF Production Assay
THP1 cells are resuspended in fresh THP1 media (RPMI 1640, 10% heat-inactivated FBS, 1×PGS, 1×NEAA, plus 30 μM βME) at a concentration of 1E6/mL. One hundred microliters of cells per well are plated in a polystyrene 96-well tissue culture. One microgram per mL of bacterial LPS is prepared in THP1 media and is transferred to the wells. Test compounds are dissolved in 100% DMSO and are serially diluted 3 fold in a polypropylene 96-well microtiter plate (drug plate). HI control and LO control wells contain only DMSO. One microliter of test compound from the drug plate followed by 10 μL of LPS are transferred to the cell plate. The treated cells are induced to synthesize and secrete TNF-α at 37° C. for 3 h. […] After a 2 h incubation at RT with shaking, the reaction is read on the ECL M8 Instrument (IGEN Inc.). […] The amount of secreted TNF-α in the presence of compound compared with that in the presence of DMSO vehicle alone (HI control) is calculated using the formula: % control (POC)=(cpd−average LO)/(average HI−average LO)*100. […]

| SMILES | IC50 [µM] |
| --- | --- |
| CN(c1ccnc(NC(C)(C)Cc2ccccc2)n1)c1nccc(-c2ccccc2)n1 [N-2-(1,1-dimethyl-2-phenylethyl)-N-4-methyl-N-4-(4-phenyl-2-pyrimidinyl)-2,4-pyrimidinediamine] | ≤ 20 |
| CN(c1ccnc(NC[C@@H](c2cccnc2)N(C)C)n1)c1ccnc(-c2ccccc2)n1 [N-2-((2R)-2-(dimethylamino)-2-(3-pyridinyl)ethyl)-N-4-methyl-N-4-(2-phenyl-4-pyrimidinyl)-2,4-pyrimidinediamine] | ≤ 20 |
